# Experimental data from the supplement of paper PMC8728848.
# The other results are listed elsewhere or left out.
# B1: Aap arpt (Staphylococcus epidermidis) (protein)
# chain: NNEAPQMSSTLQAEEGSNAEAPQSEPTKAEEGGNAEAAQSEPTKAEEGGNAEAPQSEPTKAEEGGNAEAAQSEPTKTEEGSNVKAAQSEPTKAEEGSNAEAPQSEPTKTEEGSNAKAAQSEPTKAEEGGNAEAAQSEPTKTEEGSNAEAPQSEPTKAEEGGYAEAPQSEPTKTEEGGNAEAPNVPTIKA
# Tests used:
# Experiment in all cases: glycan array binding signal (z-score within array); higher = stronger binding
# Conditions in all cases: glycan notation: IUPAC condensed, linker removed
# GlcNAc(b1-3)Gal(b1-4)Glc = molecular target: GlcNAc(b1-3)Gal(b1-4)Glc
# Procedure, shortened: (§1)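 Glycan array data came from 3228 arrays in the Consortium for Functional Glycomics database, and only arrays with an available protein sequence were kept. Glycan names were put into IUPAC-condensed notation, and columns mapping to the same glycan were averaged. The binding signal is a within-array Z-score, averaged across arrays of one protein sequence run at different concentrations or buffers and across linkers. A negative Z-score can be read as non-binding.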
# [1] = molecular target: GlcNAc(b1-3)Gal(b1-4)GlcNAc
# Procedure, shortened: as §1
# [2] = molecular target: GlcNAc(b1-3)Gal(b1-4)GlcNAc(b1-2)Man(a1-3)[GlcNAc(b1-3)Gal(b1-4)GlcNAc(b1-2)Man(a1-6)]Man(b1-4)GlcNAc(b1-4)GlcNAc
# Procedure, shortened: as §1
# [3] = molecular target: GlcNAc(b1-3)Gal(b1-4)GlcNAc(b1-2)Man(a1-3)[GlcNAc(b1-3)Gal(b1-4)GlcNAc(b1-2)Man(a1-6)]Man(b1-4)GlcNAc(b1-4)[Fuc(a1-6)]GlcNAc
# Procedure, shortened: as §1
# [4] = molecular target: GlcNAc(b1-3)Gal(b1-4)GlcNAc(b1-2)[GlcNAc(b1-3)Gal(b1-4)GlcNAc(b1-6)]Man(a1-6)[GlcNAc(b1-3)Gal(b1-4)GlcNAc(b1-2)Man(a1-3)]Man(b1-4)GlcNAc(b1-4)GlcNAc
# Procedure, shortened: as §1
# [5] = molecular target: GlcNAc(b1-3)Gal(b1-4)GlcNAc(b1-3)Gal(b1-4)GlcNAc
# Procedure, shortened: as §1
# [6] = molecular target: GlcNAc(b1-3)Gal(b1-4)GlcNAc(b1-3)Gal(b1-4)GlcNAc(b1-2)Man(a1-3)[GlcNAc(b1-3)Gal(b1-4)GlcNAc(b1-3)Gal(b1-4)GlcNAc(b1-2)Man(a1-6)]Man(b1-4)GlcNAc(b1-4)GlcNAc
# Procedure, shortened: as §1
# [7] = molecular target: GlcNAc(b1-3)Gal(b1-4)GlcNAc(b1-3)Gal(b1-4)GlcNAc(b1-2)Man(a1-3)[GlcNAc(b1-3)Gal(b1-4)GlcNAc(b1-3)Gal(b1-4)GlcNAc(b1-2)Man(a1-6)]Man(b1-4)GlcNAc(b1-4)[Fuc(a1-6)]GlcNAc
# Procedure, shortened: as §1
# [8] = molecular target: GlcNAc(b1-3)Gal(b1-4)GlcNAc(b1-3)Gal(b1-4)GlcNAc(b1-2)[GlcNAc(b1-3)Gal(b1-4)GlcNAc(b1-3)Gal(b1-4)GlcNAc(b1-6)]Man(a1-6)[GlcNAc(b1-3)Gal(b1-4)GlcNAc(b1-3)Gal(b1-4)GlcNAc(b1-2)Man(a1-3)]Man(b1-4)GlcNAc(b1-4)[Fuc(a1-6)]GlcNAc
# Procedure, shortened: as §1
# [9] = molecular target: GlcNAc(b1-3)Gal(b1-4)GlcNAc(b1-3)Gal(b1-4)GlcNAc(b1-3)Gal(b1-4)GlcNAc(b1-2)Man(a1-3)[GlcNAc(b1-3)Gal(b1-4)GlcNAc(b1-3)Gal(b1-4)GlcNAc(b1-3)Gal(b1-4)GlcNAc(b1-2)Man(a1-6)]Man(b1-4)GlcNAc(b1-4)GlcNAc
# Procedure, shortened: as §1
# [10] = molecular target: GlcNAc(b1-3)Gal(b1-4)GlcNAc(b1-3)Gal(b1-4)GlcNAc(b1-3)Gal(b1-4)GlcNAc(b1-2)Man(a1-3)[GlcNAc(b1-3)Gal(b1-4)GlcNAc(b1-3)Gal(b1-4)GlcNAc(b1-3)Gal(b1-4)GlcNAc(b1-2)Man(a1-6)]Man(b1-4)GlcNAc(b1-4)[Fuc(a1-6)]GlcNAc
# Procedure, shortened: as §1
# [11] = molecular target: GlcNAc(b1-3)Gal(b1-4)GlcNAc(b1-3)Gal(b1-4)GlcNAc(b1-3)Gal(b1-4)GlcNAc(b1-2)[GlcNAc(b1-3)Gal(b1-4)GlcNAc(b1-3)Gal(b1-4)GlcNAc(b1-3)Gal(b1-4)GlcNAc(b1-6)]Man(a1-6)[GlcNAc(b1-3)Gal(b1-4)GlcNAc(b1-3)Gal(b1-4)GlcNAc(b1-3)Gal(b1-4)GlcNAc(b1-2)Man(a1-3)]Man(b1-4)GlcNAc(b1-4)[Fuc(a1-6)]GlcNAc
# Procedure, shortened: as §1
# [12] = molecular target: GlcNAc(b1-3)Gal(b1-4)GlcNAc(b1-3)Gal(b1-4)GlcNAc(b1-3)Gal(b1-4)GlcNAc(b1-3)Gal(b1-4)GlcNAc(b1-2)Man(a1-3)[GlcNAc(b1-3)Gal(b1-4)GlcNAc(b1-3)Gal(b1-4)GlcNAc(b1-3)Gal(b1-4)GlcNAc(b1-3)Gal(b1-4)GlcNAc(b1-2)Man(a1-6)]Man(b1-4)GlcNAc(b1-4)GlcNAc
# Procedure, shortened: as §1
# [13] = molecular target: GlcNAc(b1-3)Gal(b1-4)GlcNAc(b1-3)Gal(b1-4)GlcNAc(b1-3)Gal(b1-4)GlcNAc(b1-3)Gal(b1-4)GlcNAc(b1-2)Man(a1-3)[GlcNAc(b1-3)Gal(b1-4)GlcNAc(b1-3)Gal(b1-4)GlcNAc(b1-3)Gal(b1-4)GlcNAc(b1-3)Gal(b1-4)GlcNAc(b1-2)Man(a1-6)]Man(b1-4)GlcNAc(b1-4)[Fuc(a1-6)]GlcNAc
# Procedure, shortened: as §1
# [14] = molecular target: GlcNAc(b1-3)Gal(b1-4)GlcNAc(b1-3)Gal(b1-4)GlcNAc(b1-3)Gal(b1-4)GlcNAc(b1-3)Gal(b1-4)GlcNAc(b1-2)[GlcNAc(b1-3)Gal(b1-4)GlcNAc(b1-3)Gal(b1-4)GlcNAc(b1-3)Gal(b1-4)GlcNAc(b1-3)Gal(b1-4)GlcNAc(b1-6)]Man(a1-6)[GlcNAc(b1-3)Gal(b1-4)GlcNAc(b1-3)Gal(b1-4)GlcNAc(b1-3)Gal(b1-4)GlcNAc(b1-3)Gal(b1-4)GlcNAc(b1-2)Man(a1-3)]Man(b1-4)GlcNAc(b1-4)[Fuc(a1-6)]GlcNAc
# Procedure, shortened: as §1
# [15] = molecular target: GlcNAc(b1-3)Gal(b1-4)GlcNAc(b1-3)Gal(b1-4)GlcNAc(b1-3)GalNAc
# Procedure, shortened: as §1
# [16] = molecular target: GlcNAc(b1-3)Gal(b1-4)GlcNAc(b1-3)GalNAc
# Procedure, shortened: as §1
# [17] = molecular target: GlcNAc(b1-3)Gal(b1-4)GlcNAc(b1-3)[GlcNAc(b1-3)Gal(b1-4)GlcNAc(b1-3)]GalNAc
# Procedure, shortened: as §1
# [18] = molecular target: GlcNAc(b1-3)Gal(b1-4)GlcNAc(b1-6)[Gal(b1-3)]GalNAc
# Procedure, shortened: as §1
# [19] = molecular target: GlcNAc(b1-3)Gal(b1-4)GlcNAc(b1-6)[GlcNAc(b1-3)Gal(b1-3)]GalNAc
# Procedure, shortened: as §1
# [20] = molecular target: GlcNAc(b1-3)Gal(b1-4)GlcNAc(b1-6)[GlcNAc(b1-3)]Gal(b1-4)GlcNAc
# Procedure, shortened: as §1
# GlcNAc(b1-3)GalNAc = molecular target: GlcNAc(b1-3)GalNAc
# Procedure, shortened: as §1
# GlcNAc(b1-3)Man = molecular target: GlcNAc(b1-3)Man
# Procedure, shortened: as §1
# [21] = molecular target: GlcNAc(b1-3)[GlcNAc(b1-4)][GlcNAc(b1-6)]GlcNAc
# Procedure, shortened: as §1
# [22] = molecular target: GlcNAc(b1-3)[GlcNAc(b1-6)]Gal(b1-4)GlcNAc
# Procedure, shortened: as §1
# [23] = molecular target: GlcNAc(b1-3)[GlcNAc(b1-6)]GalNAc
# Procedure, shortened: as §1
# [24] = molecular target: GlcNAc(b1-4)Gal(b1-4)GlcNAc
# Procedure, shortened: as §1
# GlcNAc(b1-4)GlcNAc = molecular target: GlcNAc(b1-4)GlcNAc
# Procedure, shortened: as §1
# [25] = molecular target: GlcNAc(b1-4)GlcNAc(b1-4)GlcNAc
# Procedure, shortened: as §1
# [26] = molecular target: GlcNAc(b1-4)GlcNAc(b1-4)GlcNAc(b1-4)GlcNAc(b1-4)GlcNAc
# Procedure, shortened: as §1
# [27] = molecular target: GlcNAc(b1-4)GlcNAc(b1-4)GlcNAc(b1-4)GlcNAc(b1-4)GlcNAc(b1-4)GlcNAc
# Procedure, shortened: as §1
# [28] = molecular target: GlcNAc(b1-4)[GlcNAc(b1-6)]GalNAc
# Procedure, shortened: as §1
# [29] = molecular target: GlcNAc(b1-6)Gal(b1-4)GlcNAc
# Procedure, shortened: as §1
# GlcNAc(b1-6)GalNAc = molecular target: GlcNAc(b1-6)GalNAc
# Procedure, shortened: as §1
# [30] = molecular target: GlcNAc6S(b1-3)Gal(b1-4)GlcNAc
# Procedure, shortened: as §1
# Kdn(a2-3)Gal(b1-3)GalNAc = molecular target: Kdn(a2-3)Gal(b1-3)GalNAc
# Procedure, shortened: as §1
# Kdn(a2-3)Gal(b1-3)GlcNAc = molecular target: Kdn(a2-3)Gal(b1-3)GlcNAc
# Procedure, shortened: as §1
# Kdn(a2-3)Gal(b1-4)Glc = molecular target: Kdn(a2-3)Gal(b1-4)Glc
# Procedure, shortened: as §1
# Kdn(a2-3)Gal(b1-4)GlcNAc = molecular target: Kdn(a2-3)Gal(b1-4)GlcNAc
# Procedure, shortened: as §1
# [31] = molecular target: Kdn(a2-3)Gal(b1-4)[Fuc(a1-3)]GlcNAc
# Procedure, shortened: as §1
# Kdn(a2-6)Gal(b1-4)GlcNAc = molecular target: Kdn(a2-6)Gal(b1-4)GlcNAc
# Procedure, shortened: as §1
# [32] = molecular target: Man(a1-2)Man(a1-2)Man(a1-3)Man
# Procedure, shortened: as §1
# [33] = molecular target: Man(a1-2)Man(a1-2)Man(a1-6)[Man(a1-3)]Man
# Procedure, shortened: as §1
# Man(a1-2)Man(a1-3)Man = molecular target: Man(a1-2)Man(a1-3)Man
# Procedure, shortened: as §1
# [34] = molecular target: Man(a1-2)Man(a1-3)[Man(a1-2)Man(a1-6)]Man
# Procedure, shortened: as §1
binder,measurement,setting,value
B1,glycan array binding signal (z-score),GlcNAc(b1-3)Gal(b1-4)Glc,2.07
same,glycan array binding signal (z-score),[1],-0.004
same,glycan array binding signal (z-score),[2],-1.09
same,glycan array binding signal (z-score),[3],0.572
same,glycan array binding signal (z-score),[4],-0.719
same,glycan array binding signal (z-score),[5],-0.333
same,glycan array binding signal (z-score),[6],-0.258
same,glycan array binding signal (z-score),[7],1.14
same,glycan array binding signal (z-score),[8],0.827
same,glycan array binding signal (z-score),[9],-0.309
same,glycan array binding signal (z-score),[10],0.616
same,glycan array binding signal (z-score),[11],1.34
same,glycan array binding signal (z-score),[12],0.336
same,glycan array binding signal (z-score),[13],0.618
same,glycan array binding signal (z-score),[14],0.703
same,glycan array binding signal (z-score),[15],0.379
same,glycan array binding signal (z-score),[16],-0.58
same,glycan array binding signal (z-score),[17],2.15
same,glycan array binding signal (z-score),[18],-0.695
same,glycan array binding signal (z-score),[19],-1.01
same,glycan array binding signal (z-score),[20],-0.039
same,glycan array binding signal (z-score),GlcNAc(b1-3)GalNAc,1.32
same,glycan array binding signal (z-score),GlcNAc(b1-3)Man,-1.29
same,glycan array binding signal (z-score),[21],-1.73
same,glycan array binding signal (z-score),[22],-0.555
same,glycan array binding signal (z-score),[23],-0.237
same,glycan array binding signal (z-score),[24],0.285
same,glycan array binding signal (z-score),GlcNAc(b1-4)GlcNAc,-0.21
same,glycan array binding signal (z-score),[25],0.473
same,glycan array binding signal (z-score),[26],-0.328
same,glycan array binding signal (z-score),[27],-0.669
same,glycan array binding signal (z-score),[28],-0.748
same,glycan array binding signal (z-score),[29],-0.338
same,glycan array binding signal (z-score),GlcNAc(b1-6)GalNAc,3.2
same,glycan array binding signal (z-score),[30],0.192
same,glycan array binding signal (z-score),Kdn(a2-3)Gal(b1-3)GalNAc,-0.439
same,glycan array binding signal (z-score),Kdn(a2-3)Gal(b1-3)GlcNAc,0.097
same,glycan array binding signal (z-score),Kdn(a2-3)Gal(b1-4)Glc,1.18
same,glycan array binding signal (z-score),Kdn(a2-3)Gal(b1-4)GlcNAc,0.093
same,glycan array binding signal (z-score),[31],0.815
same,glycan array binding signal (z-score),Kdn(a2-6)Gal(b1-4)GlcNAc,2.33
same,glycan array binding signal (z-score),[32],-1.07
same,glycan array binding signal (z-score),[33],-0.012
same,glycan array binding signal (z-score),Man(a1-2)Man(a1-3)Man,-1.35
same,glycan array binding signal (z-score),[34],-1

# A second format for some results above.
binder | measurement | setting | value
B1 | glycan array binding signal (z-score) | [13] | 0.618
same | glycan array binding signal (z-score) | [14] | 0.703
same | glycan array binding signal (z-score) | [15] | 0.379
same | glycan array binding signal (z-score) | [16] | -0.58
